The experiment concerns Salmonella enterica serovar Typhimurium SL1344. Nature of the experiment: bacterial growth OD600 after 18 h with compound and polymyxin B; higher = more bacterial growth (less inhibition). Conditions: 50 µM, Mueller-Hinton broth.

The list shows a part of the results. These are raw signals, not scaled to a control.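 First-pass screen: polymyxin B was added at a level that permeabilizes the Salmonella outer membrane while sparing the inner membrane. DMSO wells, with and without polymyxin B, defined maximum growth. Because plates differed from one another, each plate's data were ranked separately and the compounds with the lowest OD600 were carried forward as hits.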

For `CC(C)c1nccn1CCCNC(=O)c1ccc(N2CCCC2)nc1`, the “bacterial growth OD600” value (polymyxin B 1 µg/mL) turned out to be 0.88.

Regarding `CCNC(=O)N1CCCC(CCc2cccc(F)c2)C1` (stereo not given), the “bacterial growth OD600” value (polymyxin B 0.75 µg/mL) came to 0.013.

As for `O=C1CC(NS(=O)(=O)N2CCCCC2)CN1CCc1ccccc1` (stereo not given), the “bacterial growth OD600” value (polymyxin B 1 µg/mL) was 0.932.

In the case of `COCCC(=O)N1CCC(C(=O)Nc2cccc(-c3nnc(C)s3)c2)CC1`, the “bacterial growth OD600” value (polymyxin B 1 µg/mL) worked out at 0.969.

As for `COCc1ccc(CN2CCC(CO)(Cc3cccc(OC)c3)CC2)o1`, the “bacterial growth OD600” value (polymyxin B 0.75 µg/mL) was determined as 0.835.

Consider `Cc1[nH]c2c(C(=O)N3CCOc4ccc(CN5CCN(c6ccccn6)CC5)cc4C3)cccc2c1C`, for which the “bacterial growth OD600” value (polymyxin B 0.75 µg/mL) was found to be 0.498.

On to `CCOc1cc(CN2Cc3ccccc3OC(C)C2)ccc1OC` (stereo not given), for which the “bacterial growth OD600” value (polymyxin B 0.75 µg/mL) is 0.788.

For `CC(C)NC(=O)C1CCCN(C2CCN(c3nc4ccccc4o3)CC2)C1` (stereo not given), where the note is “polymyxin B 0.75 µg/mL”, the “bacterial growth OD600” value is 0.802.

Regarding `O=C(c1cc(Cc2ccccc2Cl)no1)N1CCCC1c1nccs1` (stereo not given), the “bacterial growth OD600” value (polymyxin B 0.75 µg/mL) is 0.915.

Regarding `COCC(=O)N1CCC(Oc2ccc(C(=O)NCC[C@@H]3C[C@@H]4C=C[C@H]3C4)cc2)CC1`, the “bacterial growth OD600” value (polymyxin B 1 µg/mL) was determined as 0.731.

Regarding `Cc1cc(C)n(Cc2cc(C(=O)N3CCN(C)C[C@@H]3C(C)C)n[nH]2)n1`, for the setting “polymyxin B 1 µg/mL”, the “bacterial growth OD600” value came out at 0.991.

With `CCOC(=O)C1(Cc2cccc(OC)c2)CCN(Cc2cccc3c2OCO3)CC1`, the “bacterial growth OD600” value (polymyxin B 1 µg/mL) worked out at 0.758.

As for `CCCc1cc(C(=O)N2CCCC(N3CCN(c4ccccc4C)CC3)C2)n(C)n1` (stereo not given), the “bacterial growth OD600” value (polymyxin B 1 µg/mL) came to 0.941.

For `COc1cccc(CC2(CO)CCCN(Cc3cnn(-c4ccccc4)c3)C2)c1` (stereo not given), where the note is “polymyxin B 1 µg/mL”, the “bacterial growth OD600” value was 0.791.

As to `CC(C)c1nc2cc(C(=O)NCC3(c4ccccc4)CCOCC3)ccc2o1`, the “bacterial growth OD600” value (polymyxin B 0.75 µg/mL) was found to be 0.826.

Take `COCc1c(C(=O)NCc2ccc(OC)c(OC)c2)cnn1-c1nccc(-c2cc(C)sc2C)n1`: the “bacterial growth OD600” value (polymyxin B 0.75 µg/mL) amounted to 0.715.

`CCOc1ccccc1-c1nc(CN(C)C(C)c2nc(C)cs2)c(C)o1` (stereo not given): for the setting “polymyxin B 0.75 µg/mL”, the “bacterial growth OD600” value worked out at 0.767.

Regarding `O=C(CC(F)(F)F)NC1CC(=O)N(Cc2cccc3ccccc23)C1` (stereo not given), the “bacterial growth OD600” value (polymyxin B 1 µg/mL) came out at 0.923.

Consider `CC(C)(C)C(=O)Nc1ccnn1C1CCN(Cc2c[nH]c3ccccc23)CC1`, for which, for the setting “polymyxin B 1 µg/mL”, the “bacterial growth OD600” value was found to be 0.895.

For `CN(Cc1ccccc1)C1(C(=O)NCCc2c[nH]cn2)Cc2ccccc2C1`, where the note is “polymyxin B 0.75 µg/mL”, the “bacterial growth OD600” value was found to be 0.

The values above are taken from the supplement of paper PMC12889115.
